Measurements as given in paper PMC6312924.
No constants are given. Whether binding was seen depends on the method and setting. In cells and extracts the contact can be indirect. Some results given as binding are weak or reduced against the parent protein; the word gives no strength. Where a sequence is shown, tags or fusion partners need not be part of it.

By UniProt entry, the sequences of proteins in these tests, tags left out.
UniProt Q8C0T5: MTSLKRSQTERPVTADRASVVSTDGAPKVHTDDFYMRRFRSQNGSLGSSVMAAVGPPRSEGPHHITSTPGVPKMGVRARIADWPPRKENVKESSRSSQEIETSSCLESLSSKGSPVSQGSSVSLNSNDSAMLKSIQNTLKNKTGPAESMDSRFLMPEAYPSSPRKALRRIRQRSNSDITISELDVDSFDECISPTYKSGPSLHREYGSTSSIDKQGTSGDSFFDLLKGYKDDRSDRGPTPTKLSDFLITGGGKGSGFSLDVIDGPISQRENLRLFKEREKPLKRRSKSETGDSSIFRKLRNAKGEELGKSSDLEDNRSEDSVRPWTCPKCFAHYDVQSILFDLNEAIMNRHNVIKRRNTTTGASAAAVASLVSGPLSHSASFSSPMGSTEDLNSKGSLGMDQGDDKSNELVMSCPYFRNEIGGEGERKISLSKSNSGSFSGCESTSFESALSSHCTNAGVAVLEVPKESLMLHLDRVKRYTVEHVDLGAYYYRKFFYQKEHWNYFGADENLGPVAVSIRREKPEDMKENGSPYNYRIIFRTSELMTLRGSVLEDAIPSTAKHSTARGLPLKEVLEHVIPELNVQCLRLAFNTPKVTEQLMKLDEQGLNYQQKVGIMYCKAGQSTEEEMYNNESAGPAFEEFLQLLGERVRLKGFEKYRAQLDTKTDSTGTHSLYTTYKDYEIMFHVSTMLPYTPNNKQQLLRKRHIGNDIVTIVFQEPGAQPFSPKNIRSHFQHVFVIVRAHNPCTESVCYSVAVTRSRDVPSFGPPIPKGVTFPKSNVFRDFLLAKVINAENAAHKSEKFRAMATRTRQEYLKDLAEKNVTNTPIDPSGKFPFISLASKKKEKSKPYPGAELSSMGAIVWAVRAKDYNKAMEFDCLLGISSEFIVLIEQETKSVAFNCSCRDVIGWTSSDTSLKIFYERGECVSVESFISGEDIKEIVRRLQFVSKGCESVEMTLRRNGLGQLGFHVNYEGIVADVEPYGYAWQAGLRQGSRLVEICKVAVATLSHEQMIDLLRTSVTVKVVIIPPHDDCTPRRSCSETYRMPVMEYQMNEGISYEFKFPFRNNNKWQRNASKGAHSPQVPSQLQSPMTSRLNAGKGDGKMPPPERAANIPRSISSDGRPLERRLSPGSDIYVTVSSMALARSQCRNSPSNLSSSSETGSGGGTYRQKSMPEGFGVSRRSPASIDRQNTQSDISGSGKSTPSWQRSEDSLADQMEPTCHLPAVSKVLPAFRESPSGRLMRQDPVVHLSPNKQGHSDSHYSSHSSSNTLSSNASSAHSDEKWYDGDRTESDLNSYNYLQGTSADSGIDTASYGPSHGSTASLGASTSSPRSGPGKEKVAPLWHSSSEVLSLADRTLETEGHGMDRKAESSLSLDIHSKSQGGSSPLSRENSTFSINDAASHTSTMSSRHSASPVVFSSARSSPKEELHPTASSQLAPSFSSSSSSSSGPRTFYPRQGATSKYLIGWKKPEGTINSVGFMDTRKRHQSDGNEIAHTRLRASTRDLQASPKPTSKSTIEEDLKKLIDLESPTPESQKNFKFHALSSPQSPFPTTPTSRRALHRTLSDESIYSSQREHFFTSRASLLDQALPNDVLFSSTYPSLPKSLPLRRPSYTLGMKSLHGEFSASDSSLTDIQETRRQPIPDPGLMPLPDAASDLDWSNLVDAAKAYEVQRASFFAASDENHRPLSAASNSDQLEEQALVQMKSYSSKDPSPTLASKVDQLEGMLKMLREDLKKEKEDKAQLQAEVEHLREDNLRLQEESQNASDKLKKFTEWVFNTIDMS

Molecular target: T1, myc-tagged full length cyclin G-associated kinase (GAK) wildtype (mouse) (UniProt Q3UIZ0)
T1 sequence: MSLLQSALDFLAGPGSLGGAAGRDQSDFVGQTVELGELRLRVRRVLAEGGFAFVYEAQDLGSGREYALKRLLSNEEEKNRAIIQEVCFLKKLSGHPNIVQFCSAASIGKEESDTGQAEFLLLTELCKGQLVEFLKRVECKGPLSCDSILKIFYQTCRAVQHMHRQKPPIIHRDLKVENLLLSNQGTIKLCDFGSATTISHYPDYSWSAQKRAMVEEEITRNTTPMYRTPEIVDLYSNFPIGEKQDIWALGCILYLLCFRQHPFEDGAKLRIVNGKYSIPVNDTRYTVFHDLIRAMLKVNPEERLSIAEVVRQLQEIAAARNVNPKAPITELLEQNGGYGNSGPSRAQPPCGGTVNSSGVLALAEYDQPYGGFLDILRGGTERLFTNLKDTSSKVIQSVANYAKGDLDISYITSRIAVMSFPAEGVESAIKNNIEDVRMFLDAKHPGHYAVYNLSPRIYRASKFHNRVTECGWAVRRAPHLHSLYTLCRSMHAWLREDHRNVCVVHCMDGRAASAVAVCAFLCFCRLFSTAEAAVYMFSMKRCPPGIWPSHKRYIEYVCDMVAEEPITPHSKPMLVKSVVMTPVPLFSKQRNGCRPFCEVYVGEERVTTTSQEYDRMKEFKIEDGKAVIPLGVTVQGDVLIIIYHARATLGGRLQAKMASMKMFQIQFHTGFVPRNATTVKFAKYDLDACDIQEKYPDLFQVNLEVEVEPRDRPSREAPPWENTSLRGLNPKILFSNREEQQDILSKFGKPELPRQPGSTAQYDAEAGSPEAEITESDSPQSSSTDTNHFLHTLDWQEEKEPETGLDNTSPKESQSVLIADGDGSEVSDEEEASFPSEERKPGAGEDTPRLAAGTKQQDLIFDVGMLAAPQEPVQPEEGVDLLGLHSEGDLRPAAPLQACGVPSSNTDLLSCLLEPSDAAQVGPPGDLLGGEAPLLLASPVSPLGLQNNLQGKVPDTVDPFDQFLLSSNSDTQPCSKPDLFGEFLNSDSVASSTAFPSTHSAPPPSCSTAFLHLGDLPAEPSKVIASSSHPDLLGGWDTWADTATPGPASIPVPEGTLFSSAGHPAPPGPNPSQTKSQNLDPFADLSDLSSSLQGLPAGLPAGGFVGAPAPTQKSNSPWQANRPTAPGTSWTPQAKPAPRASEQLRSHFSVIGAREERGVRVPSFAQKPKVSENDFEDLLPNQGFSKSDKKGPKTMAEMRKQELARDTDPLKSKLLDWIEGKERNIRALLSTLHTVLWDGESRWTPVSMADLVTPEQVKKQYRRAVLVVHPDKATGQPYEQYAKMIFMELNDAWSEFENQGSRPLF
Test: co-IP; HEK 293T cells co-transfected with myc-tagged FL GAK and the HA-tagged partner; GAK immunoprecipitated (GAK antibody), partner detected by blot; HA- and myc-tagged pRK5 vectors as IP controls

binding: binds
Substance: HA-tagged Sipa1L1 full length (signal-induced proliferation-associated 1-like protein 1) (from UniProt Q8C0T5 1-1782)
